Where no unit stands, none is given here, and values compare only within one read-out.
Columns and labels:
[1] = Serum ethanolamine phospholipid ratios to PtdEt 16:0/18:0 (M01) in human cohorts
[2] = Serum ethanolamine phospholipid levels in human cohorts (dementia severity, post-mortem pathology, age) by flow-injection MS/MS
[3] = serum, females, post mortem SDAT
[4] = serum, females, post mortem control

CCCCC/C=C\C/C=C\CCCCCCCC(=O)OC(COCCCCCCCCCCCCCCCC)COP(=O)(O)OCCN (centres unmarked) [Metabolite M06, Plasmanyl 16:0/18:2]
Ratio of ethanolamine phospholipid ratios to M01 between cohorts ([1]; AD, All to CN, Male): 0.833
Ratio of ethanolamine phospholipid ratios to M01 between cohorts ([1]; ADAS 5-19 to CN, Male): 0.827
Ratio of ethanolamine phospholipid ratios to M01 between cohorts ([1]; ADAS 20-39 to CN, Male): 0.840
Ratio of ethanolamine phospholipid ratios to M01 between cohorts ([1]; ADAS 40-70 to CN, Male): 0.828
Average serum ethanolamine phospholipid ratio to M01, Mean ([1]; Cognitive Normal, Male, serum): 0.255
Average serum ethanolamine phospholipid ratio to M01, Mean ([1]; SDAT, ADAS 5-19, Male, serum): 0.211
Average serum ethanolamine phospholipid ratio to M01, Mean ([1]; SDAT, ADAS 20-39, Male, serum): 0.214
Average serum ethanolamine phospholipid ratio to M01, Mean ([1]; SDAT, ADAS 40-70, Male, serum): 0.211
Average serum ethanolamine phospholipid ratio to M01, Mean ([1]; SDAT_all, Male, serum): 0.213
Ethanolamine Phospholipid Ratio to M01, Mean, Age Ctl, 30-39, Female ([1]; human serum, females aged 30-39): 0.311
Ethanolamine Phospholipid Ratio to M01, Mean, Age Ctl, 40-49, Female ([1]; human serum, females aged 40-49): 0.291
Ethanolamine Phospholipid Ratio to M01, Mean, Age Ctl, 50-59, Female ([1]; human serum, females aged 50-59): 0.261
Ratio of Ethanolamine Phospholipid Ratio to M01, 50-59 vs. 40-49, Female ([1]; human serum, females aged 50-59 vs. females aged 40-49): 0.896
Ethanolamine Phospholipid Ratio to M01, Mean, Age Ctl, 60-69, Female ([1]; human serum, females aged 60-69): 0.193
Ratio of Ethanolamine Phospholipid Ratio to M01, 60-69 vs. 40-49, Female ([1]; human serum, females aged 60-69 vs. females aged 40-49): 0.662
Ethanolamine Phospholipid Ratio to M01, Mean, Age Ctl, 70+_Female ([1]; human serum, females aged 70+): 0.213
Ratio of Ethanolamine Phospholipid Ratio to M01, 70+ vs. 40-49, Female ([1]; human serum, females aged 70+ vs. females aged 40-49): 0.733
Ratio of Ethanolamine Phospholipid Ratio to M01, 50-59 vs. 40-49, Male ([1]; human serum, males aged 50-59 vs. males aged 40-49): 1.041
Ratio of Ethanolamine Phospholipid Ratio to M01, 60-69 vs. 40-49, Male ([1]; human serum, males aged 60-69 vs. males aged 40-49): 0.851
Ratio of Ethanolamine Phospholipid Ratio to M01, 70+ vs. 40-49, Male ([1]; human serum, males aged 70+ vs. males aged 40-49): 0.898
Ratio of ethanolamine phospholipid ratio to M01, ADAS 5-19 to CN, Female ([1]; serum, females, ADAS 5-19 vs cognitive normal): 0.966
Ratio of ethanolamine phospholipid ratio to M01, ADAS 20-39 to 5-19, Female ([1]; serum, females, ADAS 20-39 vs ADAS 5-19): 0.961
Ratio of ethanolamine phospholipid ratio to M01, ADAS 20-39 to CN, Female ([1]; serum, females, ADAS 20-39 vs cognitive normal): 0.928
Ratio of ethanolamine phospholipid ratio to M01, ADAS 40-70 to 5-19, Female ([1]; serum, females, ADAS 40-70 vs ADAS 5-19): 0.797
Ratio of ethanolamine phospholipid ratio to M01, ADAS 40-70 to 20-39, Female ([1]; serum, females, ADAS 40-70 vs ADAS 20-39): 0.830
Ratio of ethanolamine phospholipid ratio to M01, ADAS 40-70 to CN, Female ([1]; serum, females, ADAS 40-70 vs cognitive normal): 0.771
Ethanolamine phospholipid ratio to M01, Mean, SDAT, ADAS 5-19, Female ([1]; serum, females, SDAT ADAS 5-19): 0.226
Ethanolamine phospholipid ratio to M01, Mean, SDAT, ADAS 20-39, Female ([1]; serum, females, SDAT ADAS 20-39): 0.217
Ethanolamine phospholipid ratio to M01, Mean, SDAT, ADAS 40-70, Female ([1]; serum, females, SDAT ADAS 40-70): 0.180
Ratio of ethanolamine phospholipid ratio to M01, AD, All to CN, Female ([1]; serum, females, all AD vs cognitive normal): 0.885
Ethanolamine phospholipid ratio to M01, Mean, SDAT_all Female ([1]; serum, females, all SDAT): 0.207
Ratio of ethanolamine phospholipid ratio to M01, Autopsy AD vs. Control, Female ([1]; serum, females, autopsy AD vs post mortem control): 0.855
Ethanolamine phospholipid ratio to M01, Mean, Cognitive Normal, Female ([1]; serum, females, cognitive normal): 0.234
Ethanolamine phospholipid ratio to M01, Mean, Post Mortem SDAT Female [1, 3]: 0.059
Ethanolamine phospholipid ratio to M01, Mean, Post Mortem Ctl, Female [1, 4]: 0.069
Ratio of ethanolamine phospholipid ratio to M01, ADAS 20-39 to 5-19, Male ([1]; serum, males, SDAT ADAS 20-39 vs ADAS 5-19): 1.016
Ratio of ethanolamine phospholipid ratio to M01, ADAS 40-70 to 5-19, Male ([1]; serum, males, SDAT ADAS 40-70 vs ADAS 5-19): 1.002
Ratio of ethanolamine phospholipid ratio to M01, ADAS 40-70 to 20-39, Male ([1]; serum, males, SDAT ADAS 40-70 vs ADAS 20-39): 0.987
Ethanolamine phospholipid ratio to M01, Mean, Age Ctl, 30-39, Male ([1]; serum, males, age control 30-39): 0.263
Ethanolamine phospholipid ratio to M01, Mean, Age Ctl, 40-49, Male ([1]; serum, males, age control 40-49): 0.234
Ethanolamine phospholipid ratio to M01, Mean, Age Ctl, 50-59, Male ([1]; serum, males, age control 50-59): 0.243
Ethanolamine phospholipid ratio to M01, Mean, Age Ctl, 60-69, Male ([1]; serum, males, age control 60-69): 0.199
Ethanolamine phospholipid ratio to M01, Mean, Age Ctl, 70+_Male ([1]; serum, males, age control 70+): 0.210
Ethanolamine phospholipid ratio to M01, Mean, Post Mortem SDAT Male ([1]; serum, males, post mortem SDAT): 0.046
Ratio of ethanolamine phospholipid ratio to M01, SDAT vs Control (post mortem, males) ([1]; serum, males, post mortem SDAT vs post mortem control): 0.581
Ethanolamine phospholipid ratio to M01, Mean, Post Mortem Ctl, Male ([1]; serum, males, post mortem control): 0.080
Ratio of serum levels ([2]; AD, All to CN, Male): 0.877
Ratio of serum levels ([2]; ADAS 5-19 to CN, Male): 0.855
Ratio of serum levels ([2]; ADAS 20-39 to 5-19, Male): 1.024
Ratio of serum levels ([2]; ADAS 20-39 to CN, Male): 0.876
Ratio of serum levels ([2]; ADAS 40-70 to 5-19, Male): 1.001
Ratio of serum levels ([2]; ADAS 40-70 to 20-39, Male): 0.978
Ratio of serum levels ([2]; ADAS 40-70 to CN, Male): 0.856
Serum level, Mean ([2]; Cognitive Normal, Female): 0.027
Average serum level, Mean ([2]; Cognitive Normal, Male): 0.028
Serum level, Mean ([2]; Post Mortem Ctl, Male): 0.009
Serum level, Mean ([2]; Post Mortem SDAT Male): 0.006
Ratio of serum levels ([2]; Post mortem SDAT vs Control, Male): 0.475
Serum level, Mean ([2]; SDAT, ADAS 5-19, Female): 0.024
Average serum level, Mean ([2]; SDAT, ADAS 5-19, Male): 0.024
Serum level, Mean ([2]; SDAT, ADAS 20-39, Female): 0.023
Average serum level, Mean ([2]; SDAT, ADAS 20-39, Male): 0.025
Serum level, Mean ([2]; SDAT, ADAS 40-70, Female): 0.020
Average serum level, Mean ([2]; SDAT, ADAS 40-70, Male): 0.024
Serum level, Mean ([2]; SDAT_all, Female): 0.022
Average serum level, Mean ([2]; SDAT_all, Male): 0.025
Ratio, ADAS 5-19 to CN, Female ([2]; serum level ratio, females, ADAS 5-19 vs CN): 0.910
Ratio, ADAS 20-39 to 5-19, Female ([2]; serum level ratio, females, ADAS 20-39 vs ADAS 5-19): 0.955
Ratio, ADAS 20-39 to CN, Female ([2]; serum level ratio, females, ADAS 20-39 vs CN): 0.869
Ratio, ADAS 40-70 to 5-19, Female ([2]; serum level ratio, females, ADAS 40-70 vs ADAS 5-19): 0.837
Ratio, ADAS 40-70 to 20-39, Female ([2]; serum level ratio, females, ADAS 40-70 vs ADAS 20-39): 0.876
Ratio, ADAS 40-70 to CN, Female ([2]; serum level ratio, females, ADAS 40-70 vs CN): 0.761
Ratio, 50-59 vs. 40-49, Female ([2]; serum level ratio, females, age 50-59 vs 40-49): 0.815
Ratio, 60-69 vs. 40-49, Female ([2]; serum level ratio, females, age 60-69 vs 40-49): 0.731
Ratio, 70+ vs. 40-49, Female ([2]; serum level ratio, females, age 70+ vs 40-49): 0.805
Ratio, AD, All to CN, Female ([2]; serum level ratio, females, all AD vs cognitively normal): 0.843
Ratio, Autopsy AD vs. Control, Female ([2]; serum level ratio, females, autopsy AD vs control): 0.531
Ratio, 50-59 vs. 40-49, Male ([2]; serum level ratio, males, age 50-59 vs 40-49): 1.031
Ratio, 60-69 vs. 40-49, Male ([2]; serum level ratio, males, age 60-69 vs 40-49): 0.976
Ratio, 70+ vs. 40-49, Male ([2]; serum level ratio, males, age 70+ vs 40-49): 1.054
Mean serum level, Age Ctl, 30-39, Female ([2]; serum, females, age 30-39): 0.031
Mean serum level, Age Ctl, 40-49, Female ([2]; serum, females, age 40-49): 0.031
Mean serum level, Age Ctl, 50-59, Female ([2]; serum, females, age 50-59): 0.025
Mean serum level, Age Ctl, 60-69, Female ([2]; serum, females, age 60-69): 0.023
Mean serum level, Age Ctl, 70+, Female ([2]; serum, females, age 70+): 0.025
Mean serum level, Post Mortem SDAT, Female [2, 3]: 0.004
Mean serum level, Post Mortem Ctl, Female [2, 4]: 0.011
Mean serum level, Age Ctl, 30-39, Male ([2]; serum, males, age 30-39): 0.032
Mean serum level, Age Ctl, 40-49, Male ([2]; serum, males, age 40-49): 0.026
Mean serum level, Age Ctl, 50-59, Male ([2]; serum, males, age 50-59): 0.026
Mean serum level, Age Ctl, 60-69, Male ([2]; serum, males, age 60-69): 0.025
Mean serum level, Age Ctl, 70+, Male ([2]; serum, males, age 70+): 0.027

Source: patent publication US9517222B2, “Method for the treatment of senile dementia of the Alzheimer's type” (Phenomenome Discoveries Inc., priority 2007, dated 2016)
